Experimental data as given in patent US12551571B2, “Protease-cleavable substrates and methods of use thereof” (CytomX Therapeutics, Inc., priority 2022, dated 2026).
Some entries share one result that the patent states for a list of compounds.

Target: MMP14 (Homo sapiens, UniProt P50281)
Assay: Internally quenched peptide probe cleavage assay, MMP14
Type: biochemical
Settings: internally quenched peptide probe 20 μM (20 pM in source), 20 nM protease, 37° C.
Experimental: The study provided herein evaluated the cleavability kinetics (i.e., pM/s and kcat/KM (M^-1s^-1)) of CMs with membrane type serine protease 1 (MT-SP1), matrix metalloprotease (MMP) 2, MMP9, and MMP14. The CMs listed in Table 9 below were presented in an internally quenched peptide probe format, rather than included in an activatable antibody format. […] Cleavability kinetics (i.e., pM/s and kcat/KM (M^-1s^-1)) were determined in 96- or 384-well plate format at 37° C. in the following buffers: 50 mM TRIS-HCl (pH 7.4), 150 mM NaCl, 0.05% Tween 20 for MT-SP1, 50 mM Tris-HCl (pH 7.5), 10 mM CaCl2, 150 mM NaCl, 0.05% (w/v) Brij-35 for MMP2 and MMP9, and 50 mM HEPES (pH 6.8), 10 mM CaCl2, 0.5 mM MgCl2, 0.05% (w/v) Brij-35 for MMP14. Cleavability kinetics were determined on an Infinite 200 PRO (Tecan) multimode plate reader using a fluorescence excitation wavelength of 320 nm and an emission wavelength of 405 nm. The study provided herein evaluated the cleavability kinetics (i.e., pM/s) of CMs with membrane type serine protease 1 (MT-SP1), matrix metalloprotease (MMP) 2, MMP9, and MMP14. […] Cleavability kinetics were determined on an Infinite 200 PRO (Tecan) multimode plate reader using a fluorescence excitation wavelength of 320 nm and an emission wavelength of 405 nm.

| Sequence | Probe Cleavage (pM/s) MMP14 |
| --- | --- |
| HQSRPWGL (MCA, Lys(DNP), D-Arg) | > 500 pM/s |
| HQSRSAPWGLL (MCA, Lys(DNP), D-Arg) | > 500 pM/s |
